Laboratory results reported in ChEMBL document CHEMBL2331377, “Spirocyclic compounds, potent CCR1 antagonists” (Bioorg Med Chem Lett, 2013).

Assay: in vitro
Details: human, Caco-2

Compound: CC(=O)Nc1ccc(O)cc1OC[C@@H](O)CN1CCC2(CC1)Cc1cc(Cl)ccc1O2
- Papp: 135 nm/s
